Seven molecules from PubChem BioAssay AID328 (DTP/NCI, 2004) can be followed below.

This assay relates to BDF1 mice, P388 leukemia ip, median survival T/C. The experiment in a line: NCI In Vivo Anticancer Drug Screen. Data for tumor model P388 Leukemia (intraperitoneal) in B6D2F1 (BDF1) mice. To be noted: T/C endpoint: median survival time, higher T/C = longer survival. The method in brief:
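Mice carrying the transplantable tumour receive compound or vehicle. Survival is followed in each arm, and the treated measure is divided by the vehicle measure.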

Where [1] appears, read: dose: 4.0 mg/kg/injection, schedule: Q04DX003 (ip), vehicle: saline with Tween-80.
[2] abbreviates: dose: 6.0 mg/kg/injection, schedule: Q04DX003 (ip), vehicle: saline with Tween-80.
The mark [3] stands for this setting: dose: 6.25 mg/kg/injection, schedule: Q04DX003 (ip), vehicle: saline with Tween-80.
[4] abbreviates: dose: 9.0 mg/kg/injection, schedule: Q04DX003 (ip), vehicle: saline with Tween-80.

The list does not hold the whole screen: its compounds were picked by chemical class. Not every dose and run of a compound is shown. T/C gives the treated animals as a percentage of the vehicle group. Where survival is the endpoint, this PubChem deposit counts one and a half times the control or more as active, and values a quarter to a half above the control carry no call in these data; other NCI protocols may use other cut-offs. Some entries show no survivor count and are marked so; the dose need not have been tolerated. Schedules are NCI's codes, read here as Q, the interval in days (D) or hours (H), X, the number of doses. Some entries were tested several times; the results are listed from low to high. Additions like (4×) count equal records among those shown.

With `ClCCNC(CCl)CCl`, the T/C runs as follows: (dose: 12.5 mg/kg/injection, schedule: Q01DX009 (ip), vehicle: saline) 109 % of control [survivor count not shown]; (dose: 25.0 mg/kg/injection, schedule: Q01DX009 (ip), vehicle: saline) 100 % of control [survivor count not shown]; (dose: 50.0 mg/kg/injection, schedule: Q01DX009 (ip), vehicle: saline) 108 [survivor count not shown] and 109 % of control [survivor count not shown]; (dose: 100.0 mg/kg/injection, schedule: Q04DX003 (ip), vehicle: saline) 123 % of control [survivor count not shown].
In the case of `ClCCN(CCCl)c1ccc(C=C2C=CC=C2)cc1`, the T/C (dose: 100.0 mg/kg/injection, schedule: Q01DX008 (ip), vehicle: saline with Tween-80) was 122 % of control [survivor count not shown]; the T/C (dose: 100.0 mg/kg/injection, schedule: Q04DX003 (ip), vehicle: saline with Tween-80) was 100 % of control [survivor count not shown]; the T/C (dose: 200.0 mg/kg/injection, schedule: Q01DX008 (ip), vehicle: saline with Tween-80) is 145 % of control [survivor count not shown]; the T/C (dose: 200.0 mg/kg/injection, schedule: Q04DX003 (ip), vehicle: saline with Tween-80) was 94 % of control [survivor count not shown]; the T/C (dose: 400.0 mg/kg/injection, schedule: Q01DX008 (ip), vehicle: saline with Tween-80) was 227 % of control [survivor count not shown]; the T/C (dose: 400.0 mg/kg/injection, schedule: Q04DX003 (ip), vehicle: saline with Tween-80) is 94 % of control [survivor count not shown].
For `O=C(O)Cc1c[nH]c2ccc(N(CCCl)CCCl)cc12`, the T/C reads like this: (dose: 0.44 mg/kg/injection, schedule: Q01DX009 (ip), vehicle: saline with Tween-80) 163 % of control [survivor count not shown]; (dose: 0.66 mg/kg/injection, schedule: Q01DX009 (ip), vehicle: saline with Tween-80) 179 % of control [survivor count not shown]; (dose: 0.88 mg/kg/injection, schedule: Q04DX003 (ip), vehicle: saline with Tween-80) 112 % of control [survivor count not shown]; (dose: 1.0 mg/kg/injection, schedule: Q01DX009 (ip), vehicle: saline with Tween-80) 208 % of control [survivor count not shown]; (dose: 1.32 mg/kg/injection, schedule: Q01DX009 (ip), vehicle: saline with Tween-80) 168 % of control [survivor count not shown]; (dose: 1.32 mg/kg/injection, schedule: Q04DX003 (ip), vehicle: saline with Tween-80) 125 % of control [survivor count not shown]. Further, the T/C is 245 % of control [survivor count not shown] (dose: 1.5 mg/kg/injection, schedule: Q01DX009 (ip), vehicle: saline with Tween-80); 209 % of control [survivor count not shown] (dose: 2.0 mg/kg/injection, schedule: Q01DX009 (ip), vehicle: saline with Tween-80); 125 % of control [survivor count not shown] (dose: 2.0 mg/kg/injection, schedule: Q04DX003 (ip), vehicle: saline with Tween-80); 204 % of control [survivor count not shown] (dose: 2.6 mg/kg/injection, schedule: Q04DX003 (ip), vehicle: saline with Tween-80); 250 % of control [survivor count not shown] (dose: 3.0 mg/kg/injection, schedule: Q01DX009 (ip), vehicle: saline with Tween-80); 150 % of control [survivor count not shown] (dose: 3.0 mg/kg/injection, schedule: Q04DX003 (ip), vehicle: saline with Tween-80). Further, the T/C is, setting by setting: under setting [1], 200 % of control [survivor count not shown]; (dose: 4.5 mg/kg/injection, schedule: Q01DX009 (ip), vehicle: saline with Tween-80) 240 % of control [survivor count not shown]; under setting [2], 254 % of control [survivor count not shown]; under setting [3], 186 % of control [survivor count not shown]; under setting [4], 86 % of control [survivor count not shown]; (dose: 12.5 mg/kg/injection, schedule: Q04DX003 (ip), vehicle: saline with Tween-80) 118 % of control [survivor count not shown].
With `NC(Cc1cccc(N(CCCl)CCCl)c1)C(=O)O` (stereo unspecified), the T/C by setting is: (dose: 0.31 mg/kg/injection, schedule: Q01DX010 (ip), vehicle: saline) 200 [survivor count not shown] and 300 % of control [survivor count not shown]; (dose: 0.62 mg/kg/injection, schedule: Q01DX010 (ip), vehicle: saline) 235 [survivor count not shown] and 245 % of control [survivor count not shown]; (dose: 0.63 mg/kg/injection, schedule: Q01DX010 (ip), vehicle: saline) 190 [survivor count not shown] and 204 % of control [survivor count not shown]; (dose: 1.25 mg/kg/injection, schedule: Q01DX010 (ip), vehicle: saline) 240 [survivor count not shown] (2×), 245 [survivor count not shown], 300 % of control [survivor count not shown]; (dose: 2.5 mg/kg/injection, schedule: Q01DX010 (ip), vehicle: saline) 175 [survivor count not shown], 254 [survivor count not shown], 260 [survivor count not shown], 300 % of control [survivor count not shown]; (dose: 5.0 mg/kg/injection, schedule: Q01DX010 (ip), vehicle: saline) 120 [survivor count not shown], 155 [survivor count not shown], 300 % of control [survivor count not shown].
As to `COC1OC(CN(CCCl)CCCl)C2OC(C)(C)OC12` (stereo unspecified), the T/C is 100 % of control [survivor count not shown] (dose: 0.05 mg/kg/injection, schedule: Q01DX009 (ip), vehicle: saline); 105 % of control [survivor count not shown] (dose: 0.07 mg/kg/injection, schedule: Q01DX009 (ip), vehicle: saline); 154 % of control [survivor count not shown] (dose: 0.29 mg/kg/injection, schedule: Q01DX009 (ip), vehicle: saline); 150 % of control [survivor count not shown] (dose: 0.44 mg/kg/injection, schedule: Q01DX009 (ip), vehicle: saline); 241 % of control [survivor count not shown] (dose: 0.68 mg/kg/injection, schedule: Q01DX009 (ip), vehicle: saline); 241 % of control [survivor count not shown] (dose: 1.0 mg/kg/injection, schedule: Q01DX009 (ip), vehicle: saline). Moreover, the T/C by setting is: (dose: 1.56 mg/kg/injection, schedule: Q01DX009 (ip), vehicle: saline) 204 % of control [survivor count not shown]; (dose: 3.12 mg/kg/injection, schedule: Q01DX009 (ip), vehicle: saline) 227 % of control [survivor count not shown].
Regarding `O[C@@H](CNCCCl)[C@@H](O)CNCCCl`, the T/C is 272 % of control [survivor count not shown] (dose: 26.4 mg/kg/injection, schedule: Q04DX003 (ip), vehicle: saline with Tween-80); 272 % of control [survivor count not shown] (dose: 40.0 mg/kg/injection, schedule: Q04DX003 (ip), vehicle: saline with Tween-80); 272 % of control [survivor count not shown] (dose: 60.0 mg/kg/injection, schedule: Q04DX003 (ip), vehicle: saline with Tween-80).
Consider `O=C(O)C(Cc1ccccc1)N(CCCl)CCCl` (stereo unspecified), for which the T/C (dose: 1.56 mg/kg/injection, schedule: Q04DX003 (ip), vehicle: saline with Tween-80) was 140 % of control [survivor count not shown]; the T/C (dose: 3.13 mg/kg/injection, schedule: Q04DX003 (ip), vehicle: saline with Tween-80) was 154 % of control [survivor count not shown]; the T/C under setting [1] is 158 % of control [survivor count not shown]; the T/C under setting [2] is 166 % of control [survivor count not shown]; the T/C under setting [3] is 209 % of control [survivor count not shown]; the T/C under setting [4] is 162 % of control [survivor count not shown].
